The values that follow come from patent publication US20080044474A1, “Dispersions of nanoureas comprising biologically active compounds” (Bayer MaterialScience AG, priority 2006, published 2008).

The subject of assay [1] is Staphylococcus epidermidis 498. Kind of assay: Agar plate inhibition halo test of active compound-loaded nanourea dispersions. In kind it is cell-based. The procedure:
(§1) Cells of Staphylococcus epidermidis 498 and Bacillus subtilis 168 are plated out on agar plates such that, after incubation overnight at 37° C., they have formed a visible cell lawn on the agar. The agar contained a complex nutrient-rich medium (Müller-Hinton medium, OD600=0.1 set; 200 μl plated out per plate, dried at room temperature for one hour). A hole was in each case punched in the centre of the plates. Active compound-containing nanourea dispersions (100 μl), which had been prepared analogously to Example 2 and in which the active compound was present exclusively in bound form, were filled into this hole. After incubation overnight, the agar was examined for diffusing antibiotic active compounds in that the missing cell lawn around the punched-out hole can be seen (“inhibition halos”). These inhibition halos were compared with an agar plate without further additives and an agar plate with an active compound-free nanourea dispersion.

For assay [2], the system named is Bacillus subtilis 168. The assay is described as above. In kind it is cell-based. On the procedure: as §1

`CCCCCCCCCCCCCCCC[n+]1ccccc1.[Cl-]` [1-Cetylpyridinium chloride]: the “Inhibition halo (diameter minus the diameter of the punched-out hole)” value came to 300 μm in assay [1] and 200 μm in assay [2].
